The values that follow come from PubChem BioAssay AID1347426 (Functional Genomics Laboratory (NCATS/FGL), 2020).

Out of some 31,000 sequences screened, about 1,400 (4.5%) were called active.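 Rule for the calls: active = median seed-adjusted z-score above 1 or below -1; inactive = the rest.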 This is one part of the list.

The test is described as follows: Novel Modifiers of Survival Motor Neuron (SMN) Protein: Gene Identification via Genome-wide siRNA Screen.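 Note: luminescence tracks full-length SMN protein made from the SMN2 reporter.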 The conditions noted are these: HEK293T SMN2-luciferase reporter, siRNA knockdown, 72 h; actives lie on both sides. An outline of the steps:
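HEK293T cells stably carrying an SMN2 promoter/splicing cassette–luciferase reporter were reverse-transfected with 1 pmol siRNA per well (druggable-genome library, 3 siRNAs per gene) and grown 72 h at 37 °C. Luminescence, normalized to negative-control siRNA and log10-transformed, was scored as MAD.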
Background: Reporter assays use an easily measured gene product as a stand-in for the process of interest.
For the sequence AGAUCUAAGCGGUGCGGUATT against CALCA, the median seed-adjusted z-score is inactive: 0.0802.

Consider GGAUCUUAGCCUCAGAAUUTT against STK36, for which the median seed-adjusted z-score was inactive: -0.0489.

With CAUCCAUGUGGGAAACAUUTT against SMARCB1, the median seed-adjusted z-score was inactive: 0.05. The figure for CAUCCGAGAUGUUUCCAAATT against BPHL is inactive: -0.161; for GCAAUUUCAUGGAGGACGATT against SPOCK2 it is inactive: 0.967; for GACUAUCGCUAAUGAGUAUTT against HSPA4 it is inactive: 0.143. For ACUUCCUGUUGGUCUACAATT against FXC1, the median seed-adjusted z-score is inactive: -0.00735. The figure for GGCUCCUAGAUGAUCGAAATT against MACF1 is inactive: -0.146; for GGCUGAUAUUAACUGUCAATT against KLF1 it is inactive: 0; for CGGACUAACUUAUAUCGCATT against MAN1A1 it is inactive: 0.

For GGUCUGCGAAUUUCAUAUATT against GCA, the median seed-adjusted z-score is inactive: -0.162. For GGAUGUACGUUGUUACCAATT against PTPN22 the value was inactive: -0.0843.

For GGAUUCAGGCUGCAAAGUATT against KHSRP, the median seed-adjusted z-score is inactive: -0.856. As for CAAAUACGGUAAUGCUGUATT against COX7B, the median seed-adjusted z-score is active: -1.16. For GAGCUUCGGUGACAGCAAATT against DNASE1L2 the value was inactive: -0.228. For GAUAAACAAGAUUCCCUUATT against SYT2 the value was inactive: 0.243; for GGAGAAAGGAUCACGCUAATT against KCTD1, inactive: 0; for GGCUUAUGAGAUCACGUAUTT against LAMC3, inactive: 0.394. For CCUGGAAACUACAAGCCCATT against SIRT3 the value was inactive: -0.341; for GGAUCAUUGAUGGACGUGATT against STS, inactive: -0.392; for GCAUCAUCACAGAGAGGUUTT against ST8SIA5, inactive: -0.358. With AGAAUGCACCAAACAAACATT against DOLPP1, the median seed-adjusted z-score is inactive: 0.00977.

Take UCACAUUAGGGAUACAAAATT against UQCR: the median seed-adjusted z-score is inactive: 0.193. As to AGAAUAAAAUGGUCUGUGATT against CRABP2, the median seed-adjusted z-score was inactive: 0.0092. For GGCAAAGGGUAGAAGAGCATT against ANXA2 the value was inactive: 0.499; for GUACAAGGUUUACAAGUAATT against RBBP8, inactive: 0.323. For GAAUAUGCAUUGCUAACCATT against SV2C the value was inactive: 0.183. The figure for CACUCGUCUGUGCAAAAUATT against ZC3HC1 is inactive: -0.859; for CUCCAACAGUUAAUCGGGATT against USP8 it is inactive: 0.743. In the case of ACAGAGAUCCGUCCACAAATT against NR1H3, the median seed-adjusted z-score was inactive: 0.426.
